Measured values published in publication PMC6624654.
No constants are given. Whether binding was seen depends on the method and setting. In cells and extracts the contact can be indirect. Some results given as binding are weak or reduced against the parent protein; the word gives no strength. Where a sequence is shown, tags or fusion partners need not be part of it.

Target: T1, GFP-tagged murine KIR2.1 (mouse) (UniProt P35561)
T1 sequence: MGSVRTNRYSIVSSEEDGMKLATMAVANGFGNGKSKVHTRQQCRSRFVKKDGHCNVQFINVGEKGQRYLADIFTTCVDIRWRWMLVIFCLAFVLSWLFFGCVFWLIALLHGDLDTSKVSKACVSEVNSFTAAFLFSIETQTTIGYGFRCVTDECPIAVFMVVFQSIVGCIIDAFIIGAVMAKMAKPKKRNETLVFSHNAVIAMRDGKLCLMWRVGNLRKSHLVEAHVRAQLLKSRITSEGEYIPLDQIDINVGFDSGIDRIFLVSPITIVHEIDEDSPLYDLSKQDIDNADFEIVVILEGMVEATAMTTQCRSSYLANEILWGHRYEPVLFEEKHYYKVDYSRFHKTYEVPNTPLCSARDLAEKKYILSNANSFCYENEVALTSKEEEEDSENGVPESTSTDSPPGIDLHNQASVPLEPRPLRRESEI
Assay: co-IP; HEK293T cells co-transfected with GFP-tagged KIR2.1 and non-tagged WT or ΔPEST KIR2.1; IP with GFP antibody; Western blot with N-terminal KIR2.1 antibody

binding: binds
B1: human WT KIR2.1 (non-tagged) (protein, UniProt P63252 1-427)
chain: MGSVRTNRYSIVSSEEDGMKLATMAVANGFGNGKSKVHTRQQCRSRFVKKDGHCNVQFINVGEKGQRYLADIFTTCVDIRWRWMLVIFCLAFVLSWLFFGCVFWLIALLHGDLDASKEGKACVSEVNSFTAAFLFSIETQTTIGYGFRCVTDECPIAVFMVVFQSIVGCIIDAFIIGAVMAKMAKPKKRNETLVFSHNAVIAMRDGKLCLMWRVGNLRKSHLVEAHVRAQLLKSRITSEGEYIPLDQIDINVGFDSGIDRIFLVSPITIVHEIDEDSPLYDLSKQDIDNADFEIVVILEGMVEATAMTTQCRSSYLANEILWGHRYEPVLFEEKHYYKVDYSRFHKTYEVPNTPLCSARDLAEKKYILSNANSFCYENEVALTSKEEDDSENGVPESTSTDTPPDIDLHNQASVPLEPRPLRRESEI
